# Some of the results follow. These are further read-outs of the screen, such as a control signal, another cell line or another target. No call is given for them. The list favours compounds with an active or inconclusive main result. Words in brackets tell the shape of the fitted curve; partial curves, single points and poor fits give uncertain potencies.
# Assay: qHTS Assay to Find Inhibitors of Chronic Active B-Cell Receptor Signaling
# Details: ABC-DLBCL IkBa-CBG/CBR reporter, luminescence ratio (green luciferase fused to IkBa over red control in TMD8 lymphoma cells), 4 h
# Outline: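 TMD8 human ABC-DLBCL cells with doxycycline-inducible IκBα–green luciferase fusion and unfused red luciferase, in 0.5% FBS medium; compounds up to 46 uM, 4 h at 37C. Green/red luminescence ratio, filter-overlap corrected, fitted to concentration-response curves.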
# [1] = measured here: CBR red luminescence, cell number
# [2] = measured here: IkBa-CBG green luminescence
Compound,AC50 [1],AC50 [2]
COc1cccc(/C=C/C(=O)N2CCN(c3ccccn3)CC2)c1,"8.91 µM [falling, partial curve]",
O=C(/C=C/NNC(=O)c1ccccc1)c1ccc(Br)cc1,"7.31 µM [falling, partial curve]",
COc1ccc(C(CC(=O)Nc2nccs2)n2cccc2)cc1 (stereo unspecified),"15.8 µM [falling, single point]",
CN(C)CCNC(=O)c1ccc(COc2ccc(Cl)cc2Cl)cc1,"25.1 µM [falling, single point]",
O=C(NNc1nc2c(F)cccc2s1)c1ccccc1,"15.8 µM [falling, single point]",
CC(C)Cc1nnc(NC(=O)Cc2ccc([N+](=O)[O-])cc2)s1,"7.31 µM [rising, partial curve]",
CC(=O)Nc1ccc2nc(SCC(=O)Nc3ccc(N4CCOCC4)c(Cl)c3)sc2c1,"11.2 µM [falling, partial curve]",
CCc1cccc(CC)c1NC(=O)CSc1nc2ccc(N3C(=O)C4C(C3=O)[C@H]3C=C[C@@H]4C3)cc2s1 (stereo partly specified),"0.82 µM [falling, full curve, poor fit]",
CN(C)C1N(C(=O)c2ccccc2)N=C2c3ccccc3S(=O)(=O)N21 (stereo unspecified),"35.5 µM [rising, single point]",
CCOC(=O)c1cc(CC)sc1NC(=O)Cc1ccccc1,"16.4 µM [rising, single point]",
O=C(Nc1ccc(F)c(Cl)c1)Nc1csc2ccccc12,"35.5 µM [falling, single point]",
Cc1cc(N2CCCCC2)ccc1[N+](=O)[O-],"20.6 µM [rising, single point]",
CCOc1cccc(-c2nnc3sc(-c4cc(OC)c(OC)cc4OC)nn23)c1,"35.5 µM [rising, single point]",
CCOC(=O)c1cnc(SC)nc1Sc1cc(Cl)ccc1Cl,"6.31 µM [rising, single point]",
Clc1ccc(N2CCN(/N=C/c3ccncc3)CC2)cc1,"14.1 µM [rising, partial curve, poor fit]",
CCOc1ccccc1NC(=O)Nc1ccsc1C(=O)OC,"5.01 µM [falling, partial curve]",
C/C(=N/NS(=O)(=O)c1ccc(Cl)cc1)c1cccc(NC(=O)c2ccncc2)c1,,"12.6 µM [falling, partial curve, poor fit]"
CN(Cc1ccccc1)C(=O)COc1ccc(N(C)S(=O)(=O)c2ccc(F)cc2)cc1,"25.1 µM [falling, single point]",
CCC(CC)C(=O)Nc1cccc(C(=O)Nc2nnc(C)s2)c1,"20 µM [falling, partial curve, poor fit]",
O=C(CN1CC[C@@]2(O)CCCC[C@H]2[C@@H]1c1ccc(F)cc1)NCc1ccco1,"4.47 µM [falling, partial curve, poor fit]",
Cc1cccc(NC(=O)CN(C2=NC3CS(=O)(=O)CC3S2)c2ccccc2F)c1 (stereo unspecified),"35.5 µM [falling, single point]",

# In the list so far, these contain a halogen.
Compound,AC50 [1],AC50 [2]
O=C(/C=C/NNC(=O)c1ccccc1)c1ccc(Br)cc1,"7.31 µM [falling, partial curve]",
CN(C)CCNC(=O)c1ccc(COc2ccc(Cl)cc2Cl)cc1,"25.1 µM [falling, single point]",
O=C(NNc1nc2c(F)cccc2s1)c1ccccc1,"15.8 µM [falling, single point]",
CC(=O)Nc1ccc2nc(SCC(=O)Nc3ccc(N4CCOCC4)c(Cl)c3)sc2c1,"11.2 µM [falling, partial curve]",
O=C(Nc1ccc(F)c(Cl)c1)Nc1csc2ccccc12,"35.5 µM [falling, single point]",
CCOC(=O)c1cnc(SC)nc1Sc1cc(Cl)ccc1Cl,"6.31 µM [rising, single point]",
Clc1ccc(N2CCN(/N=C/c3ccncc3)CC2)cc1,"14.1 µM [rising, partial curve, poor fit]",
C/C(=N/NS(=O)(=O)c1ccc(Cl)cc1)c1cccc(NC(=O)c2ccncc2)c1,,"12.6 µM [falling, partial curve, poor fit]"
CN(Cc1ccccc1)C(=O)COc1ccc(N(C)S(=O)(=O)c2ccc(F)cc2)cc1,"25.1 µM [falling, single point]",
O=C(CN1CC[C@@]2(O)CCCC[C@H]2[C@@H]1c1ccc(F)cc1)NCc1ccco1,"4.47 µM [falling, partial curve, poor fit]",
Cc1cccc(NC(=O)CN(C2=NC3CS(=O)(=O)CC3S2)c2ccccc2F)c1 (stereo unspecified),"35.5 µM [falling, single point]",

# Next part.

Compound,AC50 [1],AC50 [2]
CCOc1ccccc1Nc1nnc(SCC(=O)Nc2cccc(S(=O)(=O)NC3=NCCCCC3)c2)s1,"18.4 µM [falling, single point]",
CCOC(=O)c1cnn(Cc2cccc(Cl)c2)c1C,"0.1 µM [falling, full curve, poor fit]",
CN(C)c1ccc(/C=C/C#N)cc1,"12.6 µM [rising, single point]",
CCOC(=O)c1c(NC(=O)COc2cccc3c2CCN(C)C3=O)sc2c1CCC2,"2.59 µM [falling, full curve, poor fit]",
CN(C)/N=C/C=C1\CC/C(=C\c2ccc(Br)cc2)C1=O,"20.6 µM [falling, partial curve, poor fit]",
O=C(Nc1ccc(Cl)c([N+](=O)[O-])c1)Nc1nc2ccccc2s1,"4.47 µM [rising, partial curve, poor fit]",
O=C(O)c1c(C(=O)N2N=C3/C(=C/c4ccccc4)CCCC3C2c2ccccc2)cccc1[N+](=O)[O-] (stereo unspecified),"7.08 µM [falling, full curve, poor fit]",
COC(=O)CNC(=O)CN1C(=O)N(c2ccc(Cl)cc2)C(N(O)C(=O)Nc2ccc(Cl)cc2)C1(C)C (stereo unspecified),"6.31 µM [rising, single point]",
O=C(N/N=C/c1ccc2c(c1)OCO2)c1ccn(Cc2ccc(Cl)cc2)n1,"1.58 µM [falling, full curve]",
CN1/C(=C\C(=O)CN2C(=O)NC3(CCCCCC3)C2=O)C(C)(C)c2ccccc21,"0.13 µM [rising, full curve, poor fit]",
CCOc1cc(C2/C(=C(/O)c3ccc(OC)cc3)C(=O)C(=O)N2CC2CCCO2)ccc1O (stereo unspecified),"22.4 µM [falling, single point]",
Clc1ccc(OCCN2CCCCC2)c(Cl)c1,"6.51 µM [rising, single point]",
CC(C)n1c(C(=O)OCC(=O)NCc2ccc3c(c2)OCO3)cc2sccc21,"35.5 µM [falling, single point]",
Cc1cc(/C=C2/C(=O)NN(c3ccccc3)C2=O)c(C)n1-c1ccc(O)cc1,"23.1 µM [falling, partial curve, poor fit]",
CC1CCN(C(=O)CSc2nc3ccccc3s2)CC1,"2.91 µM [rising, full curve, poor fit]",
COc1ccc(CN2C=C3C(=O)C(C)(OC(=O)CCc4ccccc4)C(=O)C=C3C=C2c2ccc(C#N)cc2)cc1 (stereo unspecified),"2.51 µM [rising, full curve, poor fit]",
CC(=O)c1ccc(N2CCN(C(=S)Nc3cccc(Cl)c3)CC2)cc1,"25.9 µM [rising, single point]",
COCCN(C(=O)COC(=O)CSc1ccc2ccccc2c1)c1c(N)n(Cc2ccccc2)c(=O)[nH]c1=O,"23.1 µM [falling, single point]",
O=[N+]([O-])c1ccn(-c2nc(-c3ccccc3)cc(C(F)(F)F)n2)n1,"31.6 µM [rising, single point]",
N#CCSCC(=O)Nc1ccc(Br)cc1,"18.4 µM [rising, single point]",
COc1ccc(C)cc1NC(=O)CNC(c1ccccc1)c1ccc(C)cc1 (stereo unspecified),"3.55 µM [rising, full curve, poor fit]","11.2 µM [falling, partial curve]"

Compound,AC50 [1],AC50 [2]
Oc1ccccc1-c1nnc(COc2ccccc2)o1,"35.5 µM [falling, single point]",
O=C(Nc1cccc(NC(=O)c2cccs2)c1)c1ccc2c(c1)OCCO2,"3.55 µM [falling, partial curve, poor fit]","12.6 µM [rising, partial curve, poor fit]"
O=C1/C(=C\c2cccs2)N=C(c2cccs2)N1Nc1ccccc1,"6.51 µM [rising, full curve, poor fit]",
O=C(N/N=C/c1ccc(OC(=O)c2ccccc2Cl)cc1)c1cc(O)cc(O)c1,"10 µM [falling, partial curve]",
Cc1nc2ccccc2nc1Nc1cccc(Cl)c1,"1.12 µM [rising, partial curve, poor fit]",
N#C/C(=C\C1=C(N2CCOCC2)C(=C/c2cccc([N+](=O)[O-])c2)/CC1)C(=O)Nc1ccccc1F,"0.651 µM [rising, full curve]",
CCCOc1ccc2nc(NC(=O)OC)[nH]c2c1,"8.2 µM [rising, partial curve, poor fit]","5.8 µM [falling, full curve]"
Cc1ccc(NC(=O)CN2CCOCC2)cc1,"35.5 µM [rising, single point]",
C/C(=N\NC(=O)Cc1ccccc1)c1cccs1,"6.31 µM [rising, single point]",
O=C(O)c1cc(N/N=C/c2c[nH]c3ccccc23)ccc1Cl,"8.91 µM [falling, partial curve]",
Cc1[nH]n(-c2ccccc2)c(=O)c1/C=N/NC(=O)c1ccccc1F,"1.12 µM [falling, full curve]",
COC(=O)c1ccc(COc2ccc3c(C)c(C)c(=O)oc3c2)o1,"3.55 µM [falling, single point]",
CC(=O)Nc1cccc(C(=O)/C=C/c2cccs2)c1,"14.6 µM [falling, partial curve]",
Fc1ccccc1C1CC(c2ccco2)=Nc2ccccc2S1 (stereo unspecified),,"35.5 µM [falling, partial curve, poor fit]"
CCc1ccc(NC(=S)N(Cc2ccc(Cl)cc2)Cc2ccc(C(=O)O)cc2)cc1,"10 µM [falling, partial curve]",
CC1CCc2nc(/C(C#N)=C/c3cccnc3)sc2C1 (stereo unspecified),"3.98 µM [rising, full curve, poor fit]",
COc1ccc(Cn2c(=O)cc(N)n(-c3ccccc3C)c2=O)cc1,"3.16 µM [rising, full curve, poor fit]",
COc1ccc(/C=C(/NC(=O)c2ccc(OC)cc2)C(=O)NCCc2c[nH]c3ccccc23)cc1,"0.92 µM [rising, full curve]",
CCNC(=S)Nc1ccc(Cc2ccncc2)cc1,"12.6 µM [rising, partial curve, poor fit]",
Cc1ccccc1NC(=O)C(Cc1ccccc1)n1cccc1 (stereo unspecified),"0.631 µM [rising, full curve, poor fit]",
Cc1cc(C)c(S(=O)(=O)N2CCCCC2CCNC(=O)C(=O)NCCN2CCOCC2)c(C)c1 (stereo unspecified),"29.1 µM [falling, single point]",

# Reference: PubChem BioAssay AID493014 (National Center for Advancing Translational Sciences (NCATS), 2011)
